For one molecule, binding results are on record in publication PMC4407996.

By UniProt entry, the sequences of proteins in these tests, tags left out.
UniProt Q9QYF3: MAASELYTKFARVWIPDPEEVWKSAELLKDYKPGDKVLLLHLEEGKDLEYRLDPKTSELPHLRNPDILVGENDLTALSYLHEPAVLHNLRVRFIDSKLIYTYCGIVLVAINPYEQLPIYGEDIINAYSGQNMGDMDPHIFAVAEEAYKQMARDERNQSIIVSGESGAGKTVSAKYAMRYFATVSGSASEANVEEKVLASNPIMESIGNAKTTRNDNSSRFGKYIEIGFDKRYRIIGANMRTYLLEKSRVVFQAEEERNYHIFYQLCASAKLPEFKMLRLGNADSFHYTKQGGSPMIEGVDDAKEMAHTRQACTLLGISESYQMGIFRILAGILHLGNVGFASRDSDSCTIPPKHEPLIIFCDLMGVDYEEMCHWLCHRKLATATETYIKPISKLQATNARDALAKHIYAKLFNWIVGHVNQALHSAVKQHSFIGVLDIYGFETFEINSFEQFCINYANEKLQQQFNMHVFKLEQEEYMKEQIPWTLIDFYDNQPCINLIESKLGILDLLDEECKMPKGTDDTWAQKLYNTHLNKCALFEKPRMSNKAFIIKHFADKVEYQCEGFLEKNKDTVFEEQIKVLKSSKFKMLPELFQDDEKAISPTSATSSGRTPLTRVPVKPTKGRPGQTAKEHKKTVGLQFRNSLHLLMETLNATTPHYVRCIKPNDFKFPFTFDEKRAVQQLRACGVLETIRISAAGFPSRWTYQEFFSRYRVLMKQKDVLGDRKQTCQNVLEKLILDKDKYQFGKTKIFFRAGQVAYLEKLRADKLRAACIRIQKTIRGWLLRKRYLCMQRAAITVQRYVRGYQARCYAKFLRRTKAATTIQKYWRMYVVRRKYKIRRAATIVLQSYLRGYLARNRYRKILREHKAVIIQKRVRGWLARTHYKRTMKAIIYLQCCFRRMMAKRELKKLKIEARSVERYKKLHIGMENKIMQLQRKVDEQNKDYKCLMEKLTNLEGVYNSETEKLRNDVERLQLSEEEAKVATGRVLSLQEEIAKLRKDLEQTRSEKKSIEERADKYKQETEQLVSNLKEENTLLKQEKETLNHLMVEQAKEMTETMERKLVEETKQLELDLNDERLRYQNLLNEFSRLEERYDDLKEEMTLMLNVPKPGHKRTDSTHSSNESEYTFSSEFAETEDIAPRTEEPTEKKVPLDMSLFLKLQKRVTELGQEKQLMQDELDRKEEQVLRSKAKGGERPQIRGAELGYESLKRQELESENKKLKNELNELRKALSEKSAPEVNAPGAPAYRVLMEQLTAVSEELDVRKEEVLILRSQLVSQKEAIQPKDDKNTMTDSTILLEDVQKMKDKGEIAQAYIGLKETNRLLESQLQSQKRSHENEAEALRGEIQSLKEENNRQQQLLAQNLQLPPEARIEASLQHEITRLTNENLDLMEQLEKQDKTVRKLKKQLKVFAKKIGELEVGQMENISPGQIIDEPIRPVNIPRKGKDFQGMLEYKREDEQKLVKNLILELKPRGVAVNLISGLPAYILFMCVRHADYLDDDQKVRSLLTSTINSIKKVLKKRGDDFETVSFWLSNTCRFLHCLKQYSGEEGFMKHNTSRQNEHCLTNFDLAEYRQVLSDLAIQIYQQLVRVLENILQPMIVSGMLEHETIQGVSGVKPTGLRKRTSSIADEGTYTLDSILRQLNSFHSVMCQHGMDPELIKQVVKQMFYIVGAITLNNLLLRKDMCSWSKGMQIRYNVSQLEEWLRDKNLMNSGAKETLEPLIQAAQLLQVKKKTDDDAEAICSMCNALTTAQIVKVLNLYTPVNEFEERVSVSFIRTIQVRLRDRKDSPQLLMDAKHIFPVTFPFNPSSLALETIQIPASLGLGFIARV

This assay concerns the target Myosin Va (endogenous, neurons) (rat (endogenous in cultured neurons)) (UniProt Q9QYF3). The assay can be described thus: co-IP; precleared lysates of DIV6 or DIV9 rat hippocampal neurons incubated with Myosin Va antibody bound Protein A beads overnight at 4°C; immunoblots for TAO1 and phosphoTAO1/2. In general terms: In western blotting, separated proteins are transferred to a membrane and probed.

These are yes or no findings as the source states them, for the method shown. In cells and extracts the contact can be indirect. Some entries that bind do so weakly or less than the wild type.

B1: TAO1 (endogenous, hippocampal neurons) (enzyme, UniProt O88664 1-1001)
chain: MPSTNRAGSLKDPEIAELFFKEDPEKLFTDLREIGHGSFGAVYFARDVRTNEVVAIKKMSYSGKQSTEKWQDIIKEVKFLQRIKHPNSIEYKGCYLREHTAWLVMEYCLGSASDLLEVHKKPLQEVEIAAITHGALQGLAYLHSHTMIHRDIKAGNILLTEPGQVKLADFGSASMASPANSFVGTPYWMAPEVILAMDEGQYDGKVDVWSLGITCIELAERKPPLFNMNAMSALYHIAQNESPTLQSNEWSDYFRNFVDSCLQKIPQDRPTSEELLKHMFVLRERPETVLIDLIQRTKDAVRELDNLQYRKMKKLLFQEAHNGPAVEAQEEEEEQDHGGGRTGTVNSVGSNQSIPSMSISASSQSSSVNSLPDASDDKSELDMMEGDHTVMSNSSVIHLKPEEENYQEEGDPRTRASAPQSPPQVSRHKSHYRNREHFATIRTASLVTRQMQEHEQDSELREQMSGYKRMRRQHQKQLMTLENKLKAEMDEHRLRLDKDLETQRNNFAAEMEKLIKKHQASMEKEAKVMANEEKKFQQHIQAQQKKELNSFLESQKREYKLRKEQLKEELNENQSTPKKEKQEWLSKQKENIQHFQAEEEANLLRRQRQYLELECRRFKRRMLLGRHNLEQDLVREELNKRQTQKDLEHAMLLRQHESMQELEFRHLNTIQKMRCELIRLQHQTELTNQLEYNKRRERELRRKHVMEVRQQPKSLKSKELQIKKQFQDTCKIQTRQYKALRNHLLETTPKSEHKAVLKRLKEEQTRKLAILAEQYDHSINEMLSTQALRLDEAQEAECQVLKMQLQQELELLNAYQSKIKMQAEAQHDRELRELEQRVSLRRALLEQKIEEEMLALQNERTERIRSLLERQAREIEAFDSESMRLGFSNMVLSNLSPEAFSHSYPGASSWSHNPTGGSGPHWGHPMGGTPQAWGHPMQGGPQPWGHPSGPMQGVPRGSSIGVRNSPQALRRTASGGRTEQGMSRSTSVTSQISNGSHMSYT
With B1, the binding entry was “binds”.
